From US10688099B2, “Methods for modulating the amount of RNA transcripts” (PTC Therapeutics, Inc., priority 2013, dated 2020)
Values joined by “and” are separate entries in the source; they are usually repeats but may differ in a detail not shown here. Identical values can stand only once. The source gives many values for each of these; only a part stands here.

Test system: RNA isoforms in PNN 1-46 SMA type I patient-derived fibroblasts
Experiment: RNA Abundance Modulation (RNA isoform abundance, iFPM, HiSeq RNA sequencing)
Assay type: cell-based, human
Conditions: 3 μM
Description: Cells from a cell line of interest are cultured in conditions sufficient to yield the number of cells capable of generating enough RNA for subsequent sequencing steps. Cells from the tested cell line are contacted with a compound described herein.
To culture said cells, they are seeded, at appropriate concentrations in a volume of media in a cell culture container and incubated for 4, 5, 6, 7, 8, 9, 10, or more hours. A concentrated solution of compound in a vehicle (e.g., DMSO) is then added in sufficient volume to result in the intended final concentration of the compound, for example 100 nM, 500 nM, 1 μM, 5 μM, 10 μM, 15 μM, 20 μM, or more. The cells may also be treated with vehicle alone, as a control. A number of replicates of each concentration or control may be made (e.g., 2 replicates). The cells are then incubated at a constant temperature appropriate for cell culture of the particular cell line (e.g., 37° C.) for 6, 12, 18, 24, 48, or more hours. After incubation, the growth medium is removed and the cells are washed with the appropriate buffer (e.g., PBS). Cells are then removed from adherence to the cell culture container by treatment with a solution containing trypsin, and the trypsin subsequently quenched with the appropriate volume of buffer (e.g., DMEM-FBS). The cells are then pelleted with gentle centrifugation (e.g., ≤90×g centrifugal force) and resuspended in a buffer to lyse the cells for extraction of RNA. The cell lysates may then be frozen (e.g., at −80° C.) or, alternately, may immediately be used in a procedure to purify the RNA (e.g. by use of the RNEASY PLUS® minikit). The RNA from cell lysates is eluted in the appropriate volume of buffer (e.g., RNEASE-FREE H2O®). The resulting purified RNA may then be sequenced (e.g., using RNASeq) or analyzed using a human exon array (e.g., by GENECHIP® human exon array) to determine changes in the RNA levels in those cells treated with compound compared to those cells treated only with DMSO. The purified RNA may also be quantified by other methods known in the art.
Using the RNA data obtained from sequencing, exon array, or other methods, a statistical analysis can reveal changes in the RNA levels of compound-treated compared with control. For example, t-test p-values may be calculated for the data obtained through sequencing and exon array methods in order to compare compound-treated cells to those treated with the DMSO control. […] Analysis of the sequencing and exon array data may then also yield predictions about the cause of the aberrant amount of an RNA transcript in the cells (e.g., perturbation of RNA splicing, RNA transcription, or RNA stability). These predictions may be further confirmed by methods known in the art. For example, RT-PCR and RT-qPCR may be used to confirm the change in amount of RNA transcripts for one or more particular transcripts of interest.
Following the methods described above in Example 1, PNN 1-46 SMA type I patient-derived fibroblasts were treated with 300 nM or 3 μM Compounds 774 and 808 in 0.5% DMSO.
700,000 cells were seeded in 10 mL of medium (DMEM plus 10% FBS) in a T-75 flask. Cells were allowed to attach for at least 4 hrs, after which 50 μL of a 200× compound solution (100% DMSO) was added to each well, and the plate was incubated at 37° C. for 24 hrs.
At the end of the incubation period, the supernatant was removed and the cells where washed with PBS. TrypLE (Invitrogen) express solution was added (e.g. 1.5 mL per one T75 flask). The flasks were incubated for 3 to 5 min at 37° C. The trypsin was then quenched, e.g., by adding 10 mL DMEM-FBS.
Next, the cells were pelleted using gentle centrifugation without exceeding 90×g centrifugal force. The supernatant was removed and the cell pellet was re-suspended in 600 μL RLT buffer (the RLT buffer was supplemented with beta-mercaptoethanol according to the RNeasy protocol manual) by pipetting up and down until the pellet was completely dissolved […]

CCc1nc(C)cn2nc(-c3cc(=O)n4cc(C5CCN(C)CC5)cc(C)c4n3)cc12 [Compound 774]
L2FC (x + 1) (HMGCR AY429542): 0.000 | L2abs (Cpd-DMSO) (HMGCR AY429542): 0 | abs (Cpd-DMSO) (HMGCR AY429542): 0 iFPM | amp FC (x + 1) (HMGCR AY429542): 1.00 | ave Cpd (HMGCR AY429542): 0 iFPM | FC (x + 1) (HMGCR NM_000859): 2.3153 | L2FC (x + 1) (HMGCR NM_000859): 1.211 | L2abs (Cpd-DMSO) (HMGCR NM_000859): 11.24 | abs (Cpd-DMSO) (HMGCR NM_000859): 2421 iFPM | amp FC (x + 1) (HMGCR NM_000859): 2.32 | ave Cpd (HMGCR NM_000859): 4261 iFPM | FC (x + 1) (HMGCR NM_001130996): 1.1071 | L2FC (x + 1) (HMGCR NM_001130996): 0.147 | L2abs (Cpd-DMSO) (HMGCR NM_001130996): 2.80 | abs (Cpd-DMSO) (HMGCR NM_001130996): 7 iFPM | amp FC (x + 1) (HMGCR NM_001130996): 1.11 | ave Cpd (HMGCR NM_001130996): 71 iFPM | FC (x + 1) (HMGCS1 AK025736): 2.6409 | L2FC (x + 1) (HMGCS1 AK025736): 1.401 | L2abs (Cpd-DMSO) (HMGCS1 AK025736): 3.75 | abs (Cpd-DMSO) (HMGCS1 AK025736): 13 iFPM | amp FC (x + 1) (HMGCS1 AK025736): 2.64 | ave Cpd (HMGCS1 AK025736): 21 iFPM | FC (x + 1) (HMGCS1 NM_002130): 3.1962 | L2FC (x + 1) (HMGCS1 NM_002130): 1.676 | L2abs (Cpd-DMSO) (HMGCS1 NM_002130): 9.74 | abs (Cpd-DMSO) (HMGCS1 NM_002130): 858 iFPM | amp FC (x + 1) (HMGCS1 NM_002130): 3.20 | ave Cpd (HMGCS1 NM_002130): 1247 iFPM | FC (x + 1) (HMGCS1 NM_001098272): 3.2671 | L2FC (x + 1) (HMGCS1 NM_001098272): 1.708 | L2abs (Cpd-DMSO) (HMGCS1 NM_001098272): 10.02 | abs (Cpd-DMSO) (HMGCS1 NM_001098272): 1035 iFPM | amp FC (x + 1) (HMGCS1 NM_001098272): 3.27 | ave Cpd (HMGCS1 NM_001098272): 1491 iFPM | amp FC (x + 1) (UCHL5 AK316064): 1.39 | amp FC (x + 1) (UCHL5 BC015381): 1.22 | FC (x + 1) (UCHL5 NM_015984): 0.8637 | L2FC (x + 1) (UCHL5 NM_015984): −0.211 | L2abs (Cpd-DMSO) (UCHL5 NM_015984): 6.12 | abs (Cpd-DMSO) (UCHL5 NM_015984): 69 iFPM | amp FC (x + 1) (UCHL5 NM_015984): 1.16 | ave Cpd (UCHL5 NM_015984): 439 iFPM | FC (x + 1) (UCHL5 NM_001199261): 2.6069 | L2FC (x + 1) (UCHL5 NM_001199261): 1.382 | L2abs (Cpd-DMSO) (UCHL5 NM_001199261): 7.64 | abs (Cpd-DMSO) (UCHL5 NM_001199261): 200 iFPM | amp FC (x + 1) (UCHL5 NM_001199261): 2.61 | ave Cpd (UCHL5 NM_001199261): 324 iFPM | FC (x + 1) (UCHL5 NM_001199262): 1.1349 | L2FC (x + 1) (UCHL5 NM_001199262): 0.183 | L2abs (Cpd-DMSO) (UCHL5 NM_001199262): 4.00 | abs (Cpd-DMSO) (UCHL5 NM_001199262): 16 iFPM | amp FC (x + 1) (UCHL5 NM_001199262): 1.13 | ave Cpd (UCHL5 NM_001199262): 134 iFPM | FC (x + 1) (UCHL5 NM_001199263): 0.8534 | L2FC (x + 1) (UCHL5 NM_001199263): −0.229 | L2abs (Cpd-DMSO) (UCHL5 NM_001199263): 4.98 | abs (Cpd-DMSO) (UCHL5 NM_001199263): 31 iFPM | amp FC (x + 1) (UCHL5 NM_001199263): 1.17 | ave Cpd (UCHL5 NM_001199263): 182 iFPM | FC (x + 1) (UCHL5 NR_037607): 1.0924 | L2FC (x + 1) (UCHL5 NR_037607): 0.127 | L2abs (Cpd-DMSO) (UCHL5 NR_037607): 1.06 | abs (Cpd-DMSO) (UCHL5 NR_037607): 2 iFPM | amp FC (x + 1) (UCHL5 NR_037607): 1.09 | ave Cpd (UCHL5 NR_037607): 24 iFPM | FC (x + 1) (UHRF1BP1L BX647380): 0.1346 | L2FC (x + 1) (UHRF1BP1L BX647380): −2.894 | L2abs (Cpd-DMSO) (UHRF1BP1L BX647380): 7.07 | abs (Cpd-DMSO) (UHRF1BP1L BX647380): 134 iFPM | amp FC (x + 1) (UHRF1BP1L BX647380): 7.43 | ave Cpd (UHRF1BP1L BX647380): 20 iFPM | FC (x + 1) (UHRF1BP1L NM_015054): 0.9853 | L2FC (x + 1) (UHRF1BP1L NM_015054): −0.021 | L2abs (Cpd-DMSO) (UHRF1BP1L NM_015054): 4.55 | abs (Cpd-DMSO) (UHRF1BP1L NM_015054): 23 iFPM | amp FC (x + 1) (UHRF1BP1L NM_015054): 1.01 | ave Cpd (UHRF1BP1L NM_015054): 1565 iFPM | FC (x + 1) (UHRF1BP1L NM_001006947): 0.4169 | L2FC (x + 1) (UHRF1BP1L NM_001006947): −1.262 | L2abs (Cpd-DMSO) (UHRF1BP1L NM_001006947): 4.65 | abs (Cpd-DMSO) (UHRF1BP1L NM_001006947): 25 iFPM | amp FC (x + 1) (UHRF1BP1L NM_001006947): 2.40 | ave Cpd (UHRF1BP1L NM_001006947): 17 iFPM | FC (x + 1) (VANGL1 NM_138959): 0.7825 | L2FC (x + 1) (VANGL1 NM_138959): −0.354 | L2abs (Cpd-DMSO) (VANGL1 NM_138959): 9.31 | abs (Cpd-DMSO) (VANGL1 NM_138959): 634 iFPM | amp FC (x + 1) (VANGL1 NM_138959): 1.28 | ave Cpd (VANGL1 NM_138959): 2279 iFPM | FC (x + 1) (VANGL1 NM_001172412): 0.0142 | L2FC (x + 1) (VANGL1 NM_001172412): −6.143 | L2abs (Cpd-DMSO) (VANGL1 NM_001172412): 6.12 | abs (Cpd-DMSO) (VANGL1 NM_001172412): 70 iFPM | amp FC (x + 1) (VANGL1 NM_001172412): 70.66 | ave Cpd (VANGL1 NM_001172412): 0 iFPM | FC (x + 1) (VARS2 AB067472): 0.1508 | L2FC (x + 1) (VARS2 AB067472): −2.729 | L2abs (Cpd-DMSO) (VARS2 AB067472): 2.49 | abs (Cpd-DMSO) (VARS2 AB067472): 6 iFPM | amp FC (x + 1) (VARS2 AB067472): 6.63 | ave Cpd (VARS2 AB067472): 0 iFPM | FC (x + 1) (VARS2 AK000511): 1.1599 and 0.7407 | L2abs (Cpd-DMSO) (VARS2 AK000511): 2.00 and 1.77 | abs (Cpd-DMSO) (VARS2 AK000511): 4 iFPM and 3 iFPM | amp FC (x + 1) (VARS2 AK000511): 1.16 and 1.35 | abs (Cpd-DMSO) (VARS2 AK094483): 2 iFPM and 3 iFPM | amp FC (x + 1) (VARS2 AK094483): 2.53 and 3.14 | FC (x + 1) (VARS2 BC063427): 1.1095 | L2FC (x + 1) (VARS2 BC063427): 0.150 | L2abs (Cpd-DMSO) (VARS2 BC063427): 0.01 | abs (Cpd-DMSO) (VARS2 BC063427): 1 iFPM | amp FC (x + 1) (VARS2 BC063427): 1.11 | ave Cpd (VARS2 BC063427): 9 iFPM | ave Cpd (VARS2 BC143536): 0 iFPM | L2abs (Cpd-DMSO) (VARS2 NM_001167733): 3.61 and 2.65 | abs (Cpd-DMSO) (VARS2 NM_001167733): 12 iFPM and 6 iFPM | FC (x + 1) (VARS2 NM_001167734): 0.0219 | L2FC (x + 1) (VARS2 NM_001167734): −5.516 | L2abs (Cpd-DMSO) (VARS2 NM_001167734): 5.48 | abs (Cpd-DMSO) (VARS2 NM_001167734): 45 iFPM | amp FC (x + 1) (VARS2 NM_001167734): 45.77 | ave Cpd (VARS2 NM_001167734): 0 iFPM
